Taken from: PubChem BioAssay AID1259254 (NCATS, 2017)
Shown is an unselected part of about 59,000 deposited reagents. Of all reagents, about 1,550 (2.6%) got an active call. 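G2 share is only a proxy for re-replication; each gene was hit by three separate siRNAs, and active genes were retested.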 Reagents against one gene are numbered here. Further read-outs or replicates are left out here. The record does not give: the amount of reagent.

Test: 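Finding genes that stop cells copying their DNA twice in one cycle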 (primary screen)
System: human HCT116 colorectal cancer cells
Knock-down reagent: single siRNA against human genes
Duration: 3 days
Measurement: 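Nuclei stained with Hoechst and imaged; cell-cycle phase assigned by DNA content; G2 share scaled per plate, non-targeting siRNA 0%, GMNN siRNA 100%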
Scale: G2 robust z-score: higher = more G2 cells, more excess DNA replication
Rule for the call: 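Active siRNAs have a G2 robust z of 5 or more median absolute deviations over the median, which in these data means about 38% or higher of GMNN control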

{"gene symbol":"CSRNP3 (cysteine and serine rich nuclear protein 3)","reagent":1,"G2 robust z-score":0.154,"Outcome":"inactive"}
{"gene symbol":"CSRNP3 (cysteine and serine rich nuclear protein 3)","reagent":2,"G2 robust z-score":0.311,"Outcome":"inactive"}
{"gene symbol":"CSRNP3 (cysteine and serine rich nuclear protein 3)","reagent":3,"G2 robust z-score":-0.222,"Outcome":"inactive"}
{"gene symbol":"BMP1 (bone morphogenetic protein 1)","reagent":1,"G2 robust z-score":-0.44,"Outcome":"inactive"}
{"gene symbol":"BMP1 (bone morphogenetic protein 1)","reagent":2,"G2 robust z-score":-0.68,"Outcome":"inactive"}
{"gene symbol":"BMP1 (bone morphogenetic protein 1)","reagent":3,"G2 robust z-score":0.0237,"Outcome":"inactive"}
{"gene symbol":"PAEP (progestagen associated endometrial protein)","reagent":1,"G2 robust z-score":3.79,"Outcome":"inactive"}
{"gene symbol":"PAEP (progestagen associated endometrial protein)","reagent":2,"G2 robust z-score":-0.691,"Outcome":"inactive"}
{"gene symbol":"PAEP (progestagen associated endometrial protein)","reagent":3,"G2 robust z-score":0.961,"Outcome":"inactive"}
{"gene symbol":"CD1A (CD1a molecule)","reagent":1,"G2 robust z-score":-0.0962,"Outcome":"inactive"}
{"gene symbol":"CD1A (CD1a molecule)","reagent":2,"G2 robust z-score":0.132,"Outcome":"inactive"}
{"gene symbol":"CD1A (CD1a molecule)","reagent":3,"G2 robust z-score":-0.65,"Outcome":"inactive"}
